# Source: patent US20120219567A1 (Biogen, published 2012)
# Protein sequences, listed by entry. Tags and fused reporters are not part of them. Residues count along the entry.
# UniProt Q9NQC3, residues 1055-1087: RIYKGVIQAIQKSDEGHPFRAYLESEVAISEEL
# No constants are given. Whether binding was seen depends on the method and setting. Some results given as binding are weak or reduced against the parent protein; the word gives no strength. Tags and fused reporters may be left off the sequences shown.
# Biological target: T1, human NgR(310)ecto-Fc (human) (UniProt Q9BZR6)
# T1 sequence: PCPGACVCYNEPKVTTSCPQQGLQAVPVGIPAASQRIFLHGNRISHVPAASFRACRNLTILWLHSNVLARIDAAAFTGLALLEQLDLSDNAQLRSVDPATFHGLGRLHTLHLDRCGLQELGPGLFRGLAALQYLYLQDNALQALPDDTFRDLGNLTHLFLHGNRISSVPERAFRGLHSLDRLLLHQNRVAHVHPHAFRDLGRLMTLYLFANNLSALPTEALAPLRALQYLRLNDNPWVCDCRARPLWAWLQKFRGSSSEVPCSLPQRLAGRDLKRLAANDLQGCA
# Assay: AP-ligand binding to wells coated with NgR(310)ecto-Fc, ELISA format
substance,measurement,value
AP-Nogo-66(1-33) (from UniProt Q9NQC3 1055-1087) (ligand),binding,binds
